Patent publication US20070105928A1, “6-Pentafluorophenyl-triazolopyrimidines, method for their production and their use for combating pathogenic fungi, in addition to agents containing said substances” (priority 2003, published 2007)
Some results were stated once for a whole list of compounds, not compound by compound.

Tested on: Septoria tritici
Assay: Protective activity against Septoria leaf spot of wheat caused by Septoria tritici
Type: in vivo
Conditions: 63 ppm, wheat seedlings cultivar Riband, protective spray, assessed after 2 weeks; untreated plants 80% infected

SMILES: CCN(CC)c1c(-c2c(F)c(F)c(F)c(F)c2F)c(C#N)nc2ncnn12 [Compound I-2, 5-cyano-6-pentafluorophenyl-7-diethylamino-1,2,4-triazolo[1,5a]pyrimidine]
- infection of the total leaf area: not more than 5%

SMILES: Cc1nc2ncnn2c(N2CCC(C)CC2)c1-c1c(F)c(F)c(F)c(F)c1F [Compound I-3, 5-methyl-6-(pentafluorophenyl)-7-(4-methylpiperidinyl)-1,2,4-triazolo[1,5a]pyrimidine]
- infection of the total leaf area: not more than 5%
